Literature values in patent US20200239561A1, “NODAL REGULATION OF CANCER DRUG RESISTANCE GENE” (TaiRx Inc., priority 2019, published 2020).
For at least one compound, name, drawing or mass did not settle the structure.

Test system: Nodal
Settings: melanoma patients and related animal models, previous studies; cited from earlier work

## CN(C)/N=N/c1[nH]cnc1C(N)=O [dacarbazine]
  effect on Nodal expression: did not diminish
